Here are results for two substances from doi:10.1101/2020.09.10.291799.

Sequences of proteins named here, by UniProt entry; tags and fusion partners are left off.
UniProt Q04207: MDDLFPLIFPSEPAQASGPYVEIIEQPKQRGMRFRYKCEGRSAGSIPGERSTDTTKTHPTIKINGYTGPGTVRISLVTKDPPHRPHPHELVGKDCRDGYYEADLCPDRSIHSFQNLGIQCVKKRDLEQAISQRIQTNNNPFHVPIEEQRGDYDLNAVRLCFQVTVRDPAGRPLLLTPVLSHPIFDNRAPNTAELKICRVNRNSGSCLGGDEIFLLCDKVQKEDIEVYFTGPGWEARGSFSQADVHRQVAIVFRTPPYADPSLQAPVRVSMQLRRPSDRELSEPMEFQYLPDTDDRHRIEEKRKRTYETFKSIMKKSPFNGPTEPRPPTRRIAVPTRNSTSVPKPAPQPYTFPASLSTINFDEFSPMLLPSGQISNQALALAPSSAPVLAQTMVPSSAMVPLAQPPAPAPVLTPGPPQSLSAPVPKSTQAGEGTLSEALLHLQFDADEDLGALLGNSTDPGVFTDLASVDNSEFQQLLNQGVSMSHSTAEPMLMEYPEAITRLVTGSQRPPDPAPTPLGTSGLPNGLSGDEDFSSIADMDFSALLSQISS
UniProt E9Q2Z1: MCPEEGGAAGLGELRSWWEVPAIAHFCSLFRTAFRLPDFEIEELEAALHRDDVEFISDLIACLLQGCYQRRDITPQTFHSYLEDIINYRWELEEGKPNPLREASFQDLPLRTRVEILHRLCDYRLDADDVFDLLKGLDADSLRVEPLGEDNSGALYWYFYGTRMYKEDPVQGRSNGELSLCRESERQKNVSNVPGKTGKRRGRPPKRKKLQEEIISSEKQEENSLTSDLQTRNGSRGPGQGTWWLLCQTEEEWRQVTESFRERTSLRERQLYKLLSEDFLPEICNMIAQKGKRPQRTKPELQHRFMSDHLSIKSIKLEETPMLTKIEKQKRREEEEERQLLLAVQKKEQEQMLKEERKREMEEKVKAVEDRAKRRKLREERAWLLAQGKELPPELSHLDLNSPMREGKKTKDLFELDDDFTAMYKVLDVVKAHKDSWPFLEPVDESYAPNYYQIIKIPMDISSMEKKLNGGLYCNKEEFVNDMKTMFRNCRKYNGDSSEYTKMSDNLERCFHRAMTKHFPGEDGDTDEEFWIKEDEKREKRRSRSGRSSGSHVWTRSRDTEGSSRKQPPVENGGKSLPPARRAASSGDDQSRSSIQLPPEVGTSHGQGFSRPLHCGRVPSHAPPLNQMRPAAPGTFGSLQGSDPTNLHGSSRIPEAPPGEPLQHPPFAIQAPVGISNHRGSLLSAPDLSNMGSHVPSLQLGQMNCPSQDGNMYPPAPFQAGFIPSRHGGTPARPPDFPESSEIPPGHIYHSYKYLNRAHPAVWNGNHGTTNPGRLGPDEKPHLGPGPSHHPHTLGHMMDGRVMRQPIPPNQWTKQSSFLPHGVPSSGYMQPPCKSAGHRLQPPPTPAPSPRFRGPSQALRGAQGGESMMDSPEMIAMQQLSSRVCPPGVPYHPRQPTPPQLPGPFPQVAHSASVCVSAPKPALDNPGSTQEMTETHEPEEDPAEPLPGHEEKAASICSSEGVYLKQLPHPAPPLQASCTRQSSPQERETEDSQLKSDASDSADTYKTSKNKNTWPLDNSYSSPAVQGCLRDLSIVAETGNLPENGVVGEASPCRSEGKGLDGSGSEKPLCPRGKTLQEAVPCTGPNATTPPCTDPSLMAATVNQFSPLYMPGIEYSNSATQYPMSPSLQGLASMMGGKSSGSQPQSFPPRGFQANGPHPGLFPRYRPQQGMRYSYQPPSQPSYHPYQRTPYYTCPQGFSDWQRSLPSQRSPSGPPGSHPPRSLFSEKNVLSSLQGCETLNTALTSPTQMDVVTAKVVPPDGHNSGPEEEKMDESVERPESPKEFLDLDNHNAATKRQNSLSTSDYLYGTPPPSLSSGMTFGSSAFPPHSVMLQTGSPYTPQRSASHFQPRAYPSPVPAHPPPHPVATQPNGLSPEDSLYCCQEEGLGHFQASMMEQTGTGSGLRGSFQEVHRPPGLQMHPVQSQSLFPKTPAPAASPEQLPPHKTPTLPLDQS
UniProt Q9BXF3: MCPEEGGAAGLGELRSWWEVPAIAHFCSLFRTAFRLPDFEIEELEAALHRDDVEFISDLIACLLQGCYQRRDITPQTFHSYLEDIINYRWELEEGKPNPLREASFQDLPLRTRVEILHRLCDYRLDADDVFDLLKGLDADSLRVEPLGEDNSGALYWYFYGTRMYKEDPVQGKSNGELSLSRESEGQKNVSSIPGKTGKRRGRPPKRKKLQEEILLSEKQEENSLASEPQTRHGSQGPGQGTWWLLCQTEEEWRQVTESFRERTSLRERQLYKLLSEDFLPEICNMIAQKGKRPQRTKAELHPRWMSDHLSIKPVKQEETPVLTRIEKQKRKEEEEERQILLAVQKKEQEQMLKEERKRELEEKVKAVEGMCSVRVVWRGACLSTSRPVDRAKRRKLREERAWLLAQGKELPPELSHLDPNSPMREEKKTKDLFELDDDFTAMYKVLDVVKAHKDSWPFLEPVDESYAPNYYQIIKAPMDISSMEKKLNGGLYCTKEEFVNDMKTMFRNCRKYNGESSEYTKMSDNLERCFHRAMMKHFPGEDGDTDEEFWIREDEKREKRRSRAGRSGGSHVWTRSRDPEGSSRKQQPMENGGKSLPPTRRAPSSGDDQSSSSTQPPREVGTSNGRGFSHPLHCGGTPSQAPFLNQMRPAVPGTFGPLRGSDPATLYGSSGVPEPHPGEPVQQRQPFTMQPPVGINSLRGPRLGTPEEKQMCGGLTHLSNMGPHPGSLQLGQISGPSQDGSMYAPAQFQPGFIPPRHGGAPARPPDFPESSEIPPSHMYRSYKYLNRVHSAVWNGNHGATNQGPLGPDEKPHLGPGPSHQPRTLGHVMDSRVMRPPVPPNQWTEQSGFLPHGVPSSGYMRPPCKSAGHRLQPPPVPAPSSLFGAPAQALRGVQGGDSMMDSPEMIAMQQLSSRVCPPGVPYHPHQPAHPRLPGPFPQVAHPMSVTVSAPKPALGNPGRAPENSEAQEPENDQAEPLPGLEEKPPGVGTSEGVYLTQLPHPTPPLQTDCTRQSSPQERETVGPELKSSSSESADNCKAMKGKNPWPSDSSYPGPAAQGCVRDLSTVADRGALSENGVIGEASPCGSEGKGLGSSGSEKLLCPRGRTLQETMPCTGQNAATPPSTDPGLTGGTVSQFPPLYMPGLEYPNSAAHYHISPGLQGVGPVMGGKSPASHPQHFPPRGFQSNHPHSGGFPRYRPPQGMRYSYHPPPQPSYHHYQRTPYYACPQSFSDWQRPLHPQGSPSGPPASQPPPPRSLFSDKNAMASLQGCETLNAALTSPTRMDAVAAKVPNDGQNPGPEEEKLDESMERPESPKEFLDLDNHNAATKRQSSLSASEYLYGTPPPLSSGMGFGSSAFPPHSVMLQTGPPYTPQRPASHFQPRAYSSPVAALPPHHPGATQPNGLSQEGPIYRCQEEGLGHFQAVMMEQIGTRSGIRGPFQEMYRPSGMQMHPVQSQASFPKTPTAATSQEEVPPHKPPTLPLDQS

Experiment [1] has as its target RELA/p65, endogenous in 4T1 cells (mouse (endogenous in 4T1)) (UniProt Q04207). Description: co-IP.
Experiment [2] has as its target FLAG-RELA (RelA cFlag pcDNA3) (UniProt Q04207). Description: co-IP.

These are yes or no findings as the source states them, for the method shown. Binding seen in cells or lysates may run through a third protein. Some results given as binding are weak or reduced against the parent protein; the word gives no strength.

Consider “CECR2 (Cat eye syndrome chromosome region candidate 2), endogenous in 4T1 cells (from UniProt E9Q2Z1 1-1453)”, for which the binding entry in experiment [1] was “binds”. As to GFP-CECR2 (from UniProt Q9BXF3 1-1484), the binding entry in experiment [2] was “binds”.
